{"source": "PubChem BioAssay AID504467", "about": "(National Center for Advancing Translational Sciences (NCATS), 2011)", "note": "Screen size: about 330,000 compounds; about 7,700 (2.3%) were called active. This list was built around the results that the source calls inconclusive (neither active nor inactive); the mix of calls is not that of the screen. Calls follow the shape of the dose curve; as a rule, active = well fitted inhibition curve with a large enough effect; inconclusive = small, poorly fitted or top-dose-only effect, or effect the other way; inactive = flat fitted curve, though single readings scatter. Potencies of inconclusive entries are doubtful fits and often do not repeat. Potency is read from the fitted curve at half-maximal effect."}
{"experiment": "qHTS screen for small molecules that inhibit ELG1-dependent DNA repair in human embryonic kidney (HEK293T) cells expressing luciferase-tagged ELG1; also: nearly all actives have a fitted effect of over 55% in size", "settings": "HEK293T ELG1-luciferase reporter, luminescence, 16 h, DNA damage induced by 5-fluorouridine; series mostly up to 46.1 µM", "outline": "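5-Fluorouridine DNA damage + compound/DMSO, 2,000 cells/well, 16 h, 37 °C/5% CO2. ONE-Glo, 30 min RT, luminescence. Readout = decrease in reporter signal.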"}
{"compound": "Cc1nn(C)c(C)c1CN(Cc1nc(-c2ccc(F)cc2F)oc1C)C1CC1", "Potency": "inconclusive: 29.1 µM [inhibitor, single point]"}
{"compound": "Cc1c(Cl)cccc1NC(=O)COC(=O)c1ccc(CN2CCCC2=O)cc1", "Potency": "inconclusive: 20.6 µM [activator, single point]"}
{"compound": "COc1ccc2[nH]c(=O)c(CN(C(=O)c3ccncc3)C(C)C)cc2c1", "Potency": "inconclusive: 14.6 µM [activator, partial curve, poor fit]"}
{"compound": "Cn1c(=N)n(CC(=O)c2ccccc2)c2ccccc21", "Potency": "inconclusive: 0.517 µM [activator, full curve]"}
{"compound": "Cn1nc(C(=O)Nc2nc3ccccc3[nH]2)ccc1=O", "Potency": "inconclusive: 18.3 µM [activator, partial curve]"}
{"compound": "CCn1cc(C(=O)O)c(=O)c2cc(F)c(N3CCN(C(=O)Nc4ccccc4)CC3)cc21", "Potency": "inconclusive: 10.3 µM [inhibitor, partial curve]"}
{"compound": "Cc1ccc(NC(=O)CN(C)C(=O)CNC(=O)c2sc3ccccc3c2Cl)cc1", "Potency": "inconclusive: 3.55 µM [activator, partial curve, poor fit]"}
{"compound": "CC(C)Cn1c(N)c(C(=O)COC(=O)c2ccncc2)c(=O)n(C)c1=O", "Potency": "inconclusive: 14.6 µM [inhibitor, partial curve]"}
{"compound": "CCCCOC(=O)Nc1nc2ccccc2s1", "Potency": "inconclusive: 10.3 µM [activator, partial curve]"}
{"compound": "Cc1ccc(-n2c(CCc3ccccc3)nnc2SCC(=O)NCc2ccccc2)cc1C", "Potency": "inconclusive: 18.4 µM [inhibitor, single point]"}
{"compound": "COc1ccc(-c2[nH]c(-c3ccc(F)cc3)nc2SCC(=O)NC2CCCC2)cc1", "Potency": "inconclusive: 14.6 µM [inhibitor, single point]"}
{"compound": "CC(C)N(C)CCOC(=O)c1ccccc1Br", "Potency": "inactive"}
{"compound": "COc1ccc(-n2ncc3c(=O)n(CC(C)=O)cnc32)cc1", "Potency": "inconclusive: 23.1 µM [activator, partial curve, poor fit]"}
{"compound": "CCN(Cc1nc(-c2cccc(C)c2)no1)C(=O)c1ccc2c(c1)OCO2", "Potency": "inactive"}
{"compound": "CN(C)c1nc(Oc2ccc(=O)n(C)n2)nc(N2CCOCC2)n1", "Potency": "inconclusive: 32.6 µM [activator, partial curve, poor fit]"}
{"compound": "Cc1cc(C(=O)CSc2nnc3ccccn23)c(C)n1-c1ccccc1", "Potency": "inconclusive: 0.206 µM [activator, partial curve]"}
{"compound": "O=C(Nc1ncc(Cc2ccccc2)s1)C1COc2ccccc2O1", "note": "(stereo not given)", "Potency": "inconclusive: 2.82 µM [activator, full curve, poor fit]"}
{"compound": "O=c1ccc(-c2ccccc2)nn1Cc1ccc(F)cc1Cl", "Potency": "inactive"}
{"compound": "COc1ccc(CN2CCN(C(=O)CCC(=O)Nc3nnc(C(C)C)s3)CC2)cc1F", "Potency": "inconclusive: 8.2 µM [inhibitor, partial curve]"}
{"compound": "CCC(=O)Nc1ccc(NCc2cccs2)cc1", "Potency": "inconclusive: 8.2 µM [activator, partial curve]"}
{"compound": "COc1ccc(-c2nc(C#N)c(NCC3CCCO3)o2)cc1", "note": "(stereo not given)", "Potency": "inconclusive: 16.4 µM [activator, single point]"}
{"compound": "COC(=O)c1ccc(Oc2nc(Nc3ccc(F)cc3)nc(N3CCCC3)n2)cc1", "Potency": "inconclusive: 14.6 µM [inhibitor, partial curve, poor fit]"}
{"compound": "O=C(Nc1nc2ccccc2[nH]1)c1ccc(Cl)c(S(=O)(=O)N2CCCC2)c1", "Potency": "inconclusive: 29.1 µM [inhibitor, single point]"}
{"compound": "COc1ccccc1Oc1ccc(NC(=O)c2ccc(Cl)cc2)cc1", "Potency": "inconclusive: 5.8 µM [inhibitor, partial curve, poor fit]"}
{"compound": "COc1cc(C(=O)ONC(=O)c2ccc(OC(F)F)cc2)cc(OC)c1OC", "Potency": "inactive"}
{"compound": "CS(=O)(=O)N1CCc2cc(C(=O)Nc3ccccc3Br)ccc21", "Potency": "inconclusive: 9.2 µM [activator, partial curve]"}
{"compound": "CC(Oc1ccccc1)C(=O)OCC(=O)Nc1ccc2c(c1)OCO2", "note": "(stereo not given)", "Potency": "inactive"}
{"compound": "COc1ccc(N2C(=O)CSC2c2ccc(F)cc2)cc1", "note": "(stereo not given)", "Potency": "inconclusive: 8.2 µM [inhibitor, partial curve]"}
{"compound": "CC1(C)C2CC=C(/C=N/NC(=S)NCCc3ccccc3)C1C2", "note": "(stereo not given)", "Potency": "inconclusive: 16.4 µM [inhibitor, single point]"}
{"compound": "O=c1[nH][nH]c(=O)n1-c1ccccc1", "Potency": "inactive"}
{"compound": "CC1Cc2ccccc2N1C(=O)C1CCN(S(=O)(=O)c2cccs2)CC1", "note": "(stereo not given)", "Potency": "inconclusive: 25.9 µM [inhibitor, single point]"}
{"compound": "O=C(CSC(=S)N1CCCC1)c1cc(Br)cc(Br)c1O", "Potency": "inactive"}
{"compound": "C/C(Cn1nc([N+](=O)[O-])cc1C)=N\\NC(=O)COc1ccccc1[N+](=O)[O-]", "Potency": "inactive"}
{"compound": "Cc1ccc(CNC(=O)C2CC(c3cc(C(F)(F)F)cc(C(F)(F)F)c3)=NO2)o1", "note": "(stereo not given)", "Potency": "inactive"}
{"compound": "Cc1ccccc1N1CCN(S(=O)(=O)c2cccs2)CC1", "Potency": "inactive"}
{"compound": "COC(=O)COc1ccc2occ(C(C)=O)c2c1", "Potency": "inactive"}
{"compound": "Cc1ccc2nc(NC(=O)CSCc3ccccc3)sc2c1", "Potency": "inconclusive: 29.1 µM [activator, single point]"}
{"compound": "Cc1ccccc1NC(=S)N/N=C/c1ccc(O)cc1O", "Potency": "inconclusive: 20.6 µM [inhibitor, single point]"}
{"compound": "O=C(c1ccc([N+](=O)[O-])cc1)N1CCN(Cc2ccccc2)CC1", "Potency": "inactive"}
{"compound": "CCc1ccc(C2=NN(C(C)=O)C(c3ccco3)C2)cc1", "note": "(stereo not given)", "Potency": "inconclusive: 8.2 µM [activator, partial curve]"}
{"compound": "Cc1ccc(C(=O)NCC(c2ccc(F)cc2)N2CCOCC2)cc1", "note": "(stereo not given)", "Potency": "inconclusive: 18.3 µM [activator, partial curve, poor fit]"}
{"compound": "Cc1cc2c(=O)n(Cc3ccco3)c(SCC(=O)c3ccc(Cl)s3)nc2s1", "Potency": "inconclusive: 8.2 µM [inhibitor, partial curve]"}
{"compound": "CCOC(=O)C(NC(=O)c1cccc(Cl)c1)(OCc1ccc(F)cc1)C(F)(F)F", "note": "(stereo not given)", "Potency": "inconclusive: 2.06 µM [inhibitor, partial curve, poor fit]"}
{"compound": "O=C(NCc1ccccc1)c1ccc(C2SCC(=O)N2Cc2ccccc2)cc1", "note": "(stereo not given)", "Potency": "active: 16.4 µM"}
{"compound": "CCOC(=O)C1CCN(C2=NC(=O)/C(=C/c3ccccc3OC)S2)CC1", "Potency": "inactive"}
{"compound": "c1ccc(CSc2nnc3ccc(-c4cccs4)nn23)nc1", "Potency": "inconclusive: 23.1 µM [activator, single point]"}
{"compound": "CCOc1ccc(N(C)S(=O)(=O)c2ccc(C)c(C(=O)NCc3ccccc3OC)c2)cc1", "Potency": "inconclusive: 20.6 µM [inhibitor, single point]"}
{"compound": "C=CCNC(=O)c1c(N)n(-c2cccc(S(N)(=O)=O)c2)c2nc3ccccc3nc12", "Potency": "active: 9.2 µM"}
{"compound": "Cc1cc(C)cc(OCC(O)CN2CCN(Cc3ccc4c(c3)OCO4)CC2)c1", "note": "(stereo not given)", "Potency": "inconclusive: 11.6 µM [inhibitor, partial curve, poor fit]"}
{"compound": "O=C(CNS(=O)(=O)c1ccc(Br)cc1)N1CCN(c2ccc(F)cc2)CC1", "Potency": "inconclusive: 29.1 µM [inhibitor, single point]"}
{"compound": "CSCC[C@H](NC(=O)N1CCn2c1nc1ccccc12)C(=O)N1CCCCC1", "Potency": "inactive"}
{"compound": "CC(=O)COc1ccc2c(-c3ccccc3)cc(=O)oc2c1C", "Potency": "inconclusive: 13 µM [inhibitor, partial curve]"}
{"compound": "COc1ccc(/C=N/Nc2nc(-c3cccnc3)nc3ccccc23)cc1OC", "Potency": "active: 6.51 µM"}
{"compound": "O=C(NNC(=O)c1cccnc1SCc1cccc([N+](=O)[O-])c1)c1ccc(F)cc1", "Potency": "inconclusive: 23.1 µM [inhibitor, partial curve]"}
{"compound": "CCOC(=O)N1CCC(NC(=O)C2CCN(C(=O)c3cc4oc(C)cc4n3Cc3c(F)cccc3Cl)CC2)CC1", "Potency": "inconclusive: 23.1 µM [inhibitor, partial curve]"}
{"compound": "COc1ccccc1C(C(=O)NCc1ccc(F)cc1)N(C(=O)c1csnn1)C1CC1", "note": "(stereo not given)", "Potency": "inactive"}
{"compound": "Cc1onc(-c2ccccc2)c1-c1csc(COc2ccccc2)n1", "Potency": "inconclusive: 23.1 µM [inhibitor, single point]"}
{"compound": "CC(=O)Nc1sc(N/N=C\\c2ccccc2F)nc1-c1cccs1", "Potency": "inconclusive: 2.59 µM [activator, partial curve]"}
{"compound": "Cn1cccc1C(=O)OCC(=O)N1CCc2ccccc21", "Potency": "inconclusive: 7.3 µM [activator, partial curve]"}
{"compound": "S=C(NCC1CCCO1)N1CCN(Cc2ccccc2Cl)CC1", "note": "(stereo not given)", "Potency": "inconclusive: 32.6 µM [inhibitor, single point]"}
{"compound": "COc1ccc(-c2cc3ccc(F)cc3cn2)cc1", "Potency": "inconclusive: 1.46 µM [activator, full curve]"}
{"compound": "O=C(CCn1nc(-c2ccc(Cl)cc2)c2ccccc2c1=O)NN1CCOCC1", "Potency": "inactive"}
{"compound": "CCn1c(=N)n(CC(=O)c2ccc(Br)s2)c2ccccc21", "Potency": "inconclusive: 18.3 µM [activator, single point]"}
{"compound": "CSc1n[nH]c(=O)n1-c1cccc(Cl)c1", "Potency": "inactive"}
{"compound": "Cc1ccc(-c2csc(Nc3ccc(C(=O)O)cc3)[n+]2Cc2ccccc2)cc1", "Potency": "inactive"}
{"compound": "CC(C)NC(=S)Nc1ccc2cn[nH]c2c1", "Potency": "inconclusive: 29.1 µM [inhibitor, single point]"}
{"compound": "CCC1CCCCN1C(=O)COc1c(Br)cc(Br)c2cccnc12", "note": "(stereo not given)", "Potency": "inconclusive: 20.6 µM [inhibitor, single point]"}
{"compound": "Cc1ccc(C)c(-c2csc(NC(=O)c3cnccn3)n2)c1", "Potency": "inconclusive: 9.2 µM [inhibitor, partial curve]"}
{"compound": "COc1ccc2nc(SC(C(=O)c3ccccc3)c3ccccc3)nc(C)c2c1", "note": "(stereo not given)", "Potency": "inactive"}
{"compound": "COc1cc2c(=O)n(CCC(=O)NCC3CCCO3)c(=O)n(CC(=O)Nc3ccc(C)cc3C)c2cc1OC", "note": "(stereo not given)", "Potency": "inactive"}
